Reference: the supplement of paper PMC10849652
The list shows a part of the results.

By UniProt entry, the sequences of proteins in these tests, tags left out. Where a name states a change or a piece, a line headed by the entry shows the natural chain unless it says otherwise.
UniProt Q13829: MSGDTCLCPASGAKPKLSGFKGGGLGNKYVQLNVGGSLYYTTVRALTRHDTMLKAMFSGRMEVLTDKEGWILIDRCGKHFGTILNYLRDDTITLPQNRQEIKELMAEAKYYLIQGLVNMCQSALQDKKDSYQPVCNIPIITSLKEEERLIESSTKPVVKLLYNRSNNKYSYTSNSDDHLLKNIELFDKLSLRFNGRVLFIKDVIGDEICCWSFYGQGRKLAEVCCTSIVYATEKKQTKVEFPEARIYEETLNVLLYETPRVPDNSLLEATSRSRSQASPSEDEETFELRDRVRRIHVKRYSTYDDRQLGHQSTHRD
UniProt Q9BVX2: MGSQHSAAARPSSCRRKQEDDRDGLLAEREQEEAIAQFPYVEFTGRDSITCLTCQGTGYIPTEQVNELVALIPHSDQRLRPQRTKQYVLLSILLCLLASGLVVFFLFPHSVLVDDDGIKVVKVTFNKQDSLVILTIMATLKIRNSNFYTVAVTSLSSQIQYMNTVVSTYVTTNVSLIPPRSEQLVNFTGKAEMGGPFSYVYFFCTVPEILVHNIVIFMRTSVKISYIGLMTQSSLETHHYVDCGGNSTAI
UniProt O00206, whole entry, looked up: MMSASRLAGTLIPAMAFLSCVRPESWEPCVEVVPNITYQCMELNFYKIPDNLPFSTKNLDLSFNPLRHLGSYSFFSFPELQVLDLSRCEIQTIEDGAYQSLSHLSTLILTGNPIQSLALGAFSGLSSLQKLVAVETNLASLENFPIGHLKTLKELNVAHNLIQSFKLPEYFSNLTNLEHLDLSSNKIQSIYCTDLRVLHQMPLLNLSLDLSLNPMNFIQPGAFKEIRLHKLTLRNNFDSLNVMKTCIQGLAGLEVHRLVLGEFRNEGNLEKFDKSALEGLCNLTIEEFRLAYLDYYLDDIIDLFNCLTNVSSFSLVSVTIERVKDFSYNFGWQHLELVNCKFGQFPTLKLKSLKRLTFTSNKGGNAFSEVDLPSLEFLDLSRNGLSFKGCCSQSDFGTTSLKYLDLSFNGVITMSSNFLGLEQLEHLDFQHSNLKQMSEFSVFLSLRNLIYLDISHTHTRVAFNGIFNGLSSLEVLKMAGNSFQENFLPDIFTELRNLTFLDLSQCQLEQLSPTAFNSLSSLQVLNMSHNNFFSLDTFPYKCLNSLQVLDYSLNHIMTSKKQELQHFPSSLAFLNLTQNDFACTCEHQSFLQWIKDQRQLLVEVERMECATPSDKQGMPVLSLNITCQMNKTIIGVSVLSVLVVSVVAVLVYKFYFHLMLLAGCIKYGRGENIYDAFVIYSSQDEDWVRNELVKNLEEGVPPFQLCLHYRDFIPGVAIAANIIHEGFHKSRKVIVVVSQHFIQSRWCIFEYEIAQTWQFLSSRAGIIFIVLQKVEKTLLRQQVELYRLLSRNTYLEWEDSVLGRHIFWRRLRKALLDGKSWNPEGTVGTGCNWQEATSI
UniProt O75204: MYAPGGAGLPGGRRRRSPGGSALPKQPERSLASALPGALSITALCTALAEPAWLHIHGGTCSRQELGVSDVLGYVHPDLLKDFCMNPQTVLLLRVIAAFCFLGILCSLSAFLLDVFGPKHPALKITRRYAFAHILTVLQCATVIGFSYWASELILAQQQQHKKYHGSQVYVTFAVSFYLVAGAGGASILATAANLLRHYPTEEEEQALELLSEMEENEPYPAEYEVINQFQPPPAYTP
UniProt Q12767: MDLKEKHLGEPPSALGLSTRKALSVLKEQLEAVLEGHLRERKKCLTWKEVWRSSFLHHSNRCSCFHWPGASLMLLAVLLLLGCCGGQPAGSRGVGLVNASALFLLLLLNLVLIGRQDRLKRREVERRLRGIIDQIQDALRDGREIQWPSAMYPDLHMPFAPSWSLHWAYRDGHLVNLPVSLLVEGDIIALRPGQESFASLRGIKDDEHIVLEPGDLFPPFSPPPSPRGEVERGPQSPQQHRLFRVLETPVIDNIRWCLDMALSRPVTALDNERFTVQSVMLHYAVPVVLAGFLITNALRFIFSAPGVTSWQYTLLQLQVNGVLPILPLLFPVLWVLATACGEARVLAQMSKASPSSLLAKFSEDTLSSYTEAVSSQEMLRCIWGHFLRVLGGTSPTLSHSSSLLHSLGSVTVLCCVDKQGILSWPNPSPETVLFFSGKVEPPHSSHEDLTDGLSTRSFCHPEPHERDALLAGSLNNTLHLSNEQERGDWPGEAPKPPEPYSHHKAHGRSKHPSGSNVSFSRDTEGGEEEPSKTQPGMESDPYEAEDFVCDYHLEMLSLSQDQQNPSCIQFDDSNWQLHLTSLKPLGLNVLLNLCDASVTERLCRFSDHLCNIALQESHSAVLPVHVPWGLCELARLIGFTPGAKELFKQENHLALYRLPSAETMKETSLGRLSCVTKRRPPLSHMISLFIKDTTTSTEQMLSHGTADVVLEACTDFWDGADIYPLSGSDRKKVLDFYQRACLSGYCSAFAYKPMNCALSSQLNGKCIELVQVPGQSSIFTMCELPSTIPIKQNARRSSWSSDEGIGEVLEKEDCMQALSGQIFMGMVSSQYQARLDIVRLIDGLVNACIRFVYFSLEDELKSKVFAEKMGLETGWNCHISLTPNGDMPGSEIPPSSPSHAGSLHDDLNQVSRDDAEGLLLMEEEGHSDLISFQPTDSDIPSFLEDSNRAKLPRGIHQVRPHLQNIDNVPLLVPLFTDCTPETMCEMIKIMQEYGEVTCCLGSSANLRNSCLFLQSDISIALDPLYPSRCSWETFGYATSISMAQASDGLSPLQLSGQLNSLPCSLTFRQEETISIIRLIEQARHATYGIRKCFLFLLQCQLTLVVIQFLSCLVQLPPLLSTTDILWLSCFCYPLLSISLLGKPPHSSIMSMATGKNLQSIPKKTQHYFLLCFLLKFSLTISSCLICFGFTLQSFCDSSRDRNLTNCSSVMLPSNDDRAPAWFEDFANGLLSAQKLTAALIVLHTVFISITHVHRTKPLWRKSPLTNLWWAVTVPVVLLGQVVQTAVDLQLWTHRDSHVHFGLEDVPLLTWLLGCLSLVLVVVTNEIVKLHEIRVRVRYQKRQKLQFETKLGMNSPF
UniProt Q8NCS4: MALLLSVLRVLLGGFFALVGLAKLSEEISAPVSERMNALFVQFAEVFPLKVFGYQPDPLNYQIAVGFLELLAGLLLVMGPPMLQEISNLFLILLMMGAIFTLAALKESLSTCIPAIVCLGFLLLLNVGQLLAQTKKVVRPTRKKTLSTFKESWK
UniProt Q9BSE2: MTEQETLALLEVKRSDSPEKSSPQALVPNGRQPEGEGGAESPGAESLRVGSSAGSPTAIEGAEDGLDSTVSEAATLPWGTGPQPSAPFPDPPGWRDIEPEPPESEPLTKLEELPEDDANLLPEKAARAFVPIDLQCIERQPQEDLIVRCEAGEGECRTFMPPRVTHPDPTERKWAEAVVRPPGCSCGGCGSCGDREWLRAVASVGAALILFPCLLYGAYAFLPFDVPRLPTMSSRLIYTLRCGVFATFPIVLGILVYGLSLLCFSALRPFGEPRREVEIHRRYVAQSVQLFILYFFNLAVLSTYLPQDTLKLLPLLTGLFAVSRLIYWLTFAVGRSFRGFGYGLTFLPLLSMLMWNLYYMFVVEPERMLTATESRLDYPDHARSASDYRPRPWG
UniProt Q7Z403: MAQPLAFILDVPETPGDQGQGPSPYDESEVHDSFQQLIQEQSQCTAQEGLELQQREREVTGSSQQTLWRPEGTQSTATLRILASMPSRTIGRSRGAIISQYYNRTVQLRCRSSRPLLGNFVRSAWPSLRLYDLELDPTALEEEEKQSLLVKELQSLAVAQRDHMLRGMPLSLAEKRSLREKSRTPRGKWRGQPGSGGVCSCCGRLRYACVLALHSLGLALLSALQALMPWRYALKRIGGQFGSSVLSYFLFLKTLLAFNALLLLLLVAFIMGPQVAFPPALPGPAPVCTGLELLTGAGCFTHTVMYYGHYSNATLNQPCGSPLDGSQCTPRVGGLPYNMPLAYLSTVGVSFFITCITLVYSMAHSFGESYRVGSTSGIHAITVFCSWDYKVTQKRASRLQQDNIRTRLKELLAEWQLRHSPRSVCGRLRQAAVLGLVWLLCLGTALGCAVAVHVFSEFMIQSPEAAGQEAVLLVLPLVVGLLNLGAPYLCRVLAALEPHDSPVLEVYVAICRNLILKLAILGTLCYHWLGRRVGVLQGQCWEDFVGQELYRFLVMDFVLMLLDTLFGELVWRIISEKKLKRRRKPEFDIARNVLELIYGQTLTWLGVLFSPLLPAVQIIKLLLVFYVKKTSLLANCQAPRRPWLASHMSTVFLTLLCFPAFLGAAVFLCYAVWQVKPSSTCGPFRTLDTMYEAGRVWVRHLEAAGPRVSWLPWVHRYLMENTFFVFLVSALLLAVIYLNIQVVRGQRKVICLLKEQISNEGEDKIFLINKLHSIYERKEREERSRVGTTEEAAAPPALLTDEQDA
UniProt Q9ULS5: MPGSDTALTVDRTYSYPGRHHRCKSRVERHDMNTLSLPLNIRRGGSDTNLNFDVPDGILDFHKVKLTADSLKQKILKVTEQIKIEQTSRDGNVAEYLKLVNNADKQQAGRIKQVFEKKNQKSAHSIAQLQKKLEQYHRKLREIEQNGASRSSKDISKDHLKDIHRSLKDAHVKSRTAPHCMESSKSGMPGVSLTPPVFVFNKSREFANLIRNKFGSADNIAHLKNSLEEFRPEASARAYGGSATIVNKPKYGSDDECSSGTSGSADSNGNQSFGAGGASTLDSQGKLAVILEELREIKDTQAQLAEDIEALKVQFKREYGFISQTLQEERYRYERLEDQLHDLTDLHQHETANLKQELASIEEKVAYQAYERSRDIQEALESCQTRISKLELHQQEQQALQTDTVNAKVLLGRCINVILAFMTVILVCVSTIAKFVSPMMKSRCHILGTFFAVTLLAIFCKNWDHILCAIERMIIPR
UniProt Q08117: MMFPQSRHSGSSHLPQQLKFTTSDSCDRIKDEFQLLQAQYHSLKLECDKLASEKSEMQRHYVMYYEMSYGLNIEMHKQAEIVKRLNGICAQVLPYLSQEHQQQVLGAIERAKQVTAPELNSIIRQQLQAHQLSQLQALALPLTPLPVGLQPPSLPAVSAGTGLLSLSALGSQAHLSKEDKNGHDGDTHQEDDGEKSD
UniProt Q6PL24: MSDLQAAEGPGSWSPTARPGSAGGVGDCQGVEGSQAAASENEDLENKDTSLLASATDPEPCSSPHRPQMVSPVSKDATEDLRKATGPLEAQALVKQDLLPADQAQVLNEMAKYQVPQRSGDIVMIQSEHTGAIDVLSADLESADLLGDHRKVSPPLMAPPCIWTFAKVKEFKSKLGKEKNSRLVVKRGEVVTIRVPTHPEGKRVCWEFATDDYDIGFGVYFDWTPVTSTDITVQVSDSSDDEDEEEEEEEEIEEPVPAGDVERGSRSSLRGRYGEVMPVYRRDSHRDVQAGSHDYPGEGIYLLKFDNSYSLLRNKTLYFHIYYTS
UniProt Q9BSA9: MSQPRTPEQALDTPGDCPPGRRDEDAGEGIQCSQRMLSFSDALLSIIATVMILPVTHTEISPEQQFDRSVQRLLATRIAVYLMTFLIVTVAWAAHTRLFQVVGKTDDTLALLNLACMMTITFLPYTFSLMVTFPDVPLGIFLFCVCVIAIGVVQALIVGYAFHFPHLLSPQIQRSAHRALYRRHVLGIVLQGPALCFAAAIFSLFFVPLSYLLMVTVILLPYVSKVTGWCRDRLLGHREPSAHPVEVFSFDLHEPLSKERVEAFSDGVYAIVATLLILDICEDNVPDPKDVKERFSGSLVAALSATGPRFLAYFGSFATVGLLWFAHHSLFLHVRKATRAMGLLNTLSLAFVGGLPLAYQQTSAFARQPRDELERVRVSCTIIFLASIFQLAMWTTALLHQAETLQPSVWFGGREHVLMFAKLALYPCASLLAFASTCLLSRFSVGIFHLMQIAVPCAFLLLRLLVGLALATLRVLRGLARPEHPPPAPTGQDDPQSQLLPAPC
UniProt Q5T292: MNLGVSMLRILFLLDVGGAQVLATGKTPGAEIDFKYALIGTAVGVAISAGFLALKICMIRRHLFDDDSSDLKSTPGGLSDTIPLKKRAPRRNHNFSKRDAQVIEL
UniProt Q9H6X4: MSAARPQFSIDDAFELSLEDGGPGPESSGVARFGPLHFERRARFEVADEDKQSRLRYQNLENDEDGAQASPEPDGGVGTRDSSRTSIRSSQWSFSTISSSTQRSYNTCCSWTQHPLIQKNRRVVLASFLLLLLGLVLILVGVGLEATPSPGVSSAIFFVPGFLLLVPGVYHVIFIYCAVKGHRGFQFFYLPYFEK
UniProt O76062: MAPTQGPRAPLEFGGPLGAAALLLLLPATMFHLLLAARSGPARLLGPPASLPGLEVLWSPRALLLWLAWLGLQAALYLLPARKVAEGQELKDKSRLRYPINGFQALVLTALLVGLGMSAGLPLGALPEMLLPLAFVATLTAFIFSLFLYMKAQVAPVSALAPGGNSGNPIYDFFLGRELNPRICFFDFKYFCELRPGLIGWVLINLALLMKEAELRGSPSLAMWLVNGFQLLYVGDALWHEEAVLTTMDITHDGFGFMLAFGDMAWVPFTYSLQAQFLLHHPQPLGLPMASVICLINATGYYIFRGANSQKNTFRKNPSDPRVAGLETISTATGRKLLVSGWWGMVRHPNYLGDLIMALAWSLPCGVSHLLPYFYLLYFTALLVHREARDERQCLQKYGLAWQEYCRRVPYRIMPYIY

Experiments:
Experiment in all cases: log2 fold change, soluble protein after heating vs DMSO (PISA); higher = thermal stabilisation; K562 cells, 10 uM, 30 min; active = over 0.2 and 3.5 SD of the protein, either way, in both replicates (recomputed)
[1] = compound: NC1(c2ccc(-c3nc4ccn5c(=O)[nH]nc5c4cc3-c3ccccc3)cc2)CCC1
Outline: (§1)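 Quantification of soluble protein used TMTpro 16plex LC-MS/MS, with channel sums equalised. Samples were the supernatant after 21,000xg for 90 min of pooled aliquots from K562 cells (2×10^6 cells/mL) treated with 10 μM compound for 30 min, heated for 3 min over 48°C-58°C, and extracted in PBS with 0.5% NP-40 at 4°C. Values, from duplicates, describe thermal stability against control samples on a log2 fold-change scale.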

silmitasertib = compound: O=C(O)c1ccc2c(c1)nc(Nc1cccc(Cl)c1)c1ccncc12 [silmitasertib]
Outline: as §1

[2] = compound: NC(=O)c1cnc(N[C@@H]2CCCC[C@@H]2N)nc1Nc1cccc(-n2nccn2)c1
Outline: as §1

[3] = compound: NCC(=O)Nc1ccc(-n2nc(C(F)(F)F)cc2-c2ccc3c(ccc4ccccc43)c2)cc1
Outline: as §1

citarinostat = compound: O=C(CCCCCCNC(=O)c1cnc(N(c2ccccc2)c2ccccc2Cl)nc1)NO [citarinostat]
Outline: as §1

[4] = compound: O=C1NC(=O)C(c2cnc3ccccn23)=C1c1cn2c3c(cc(F)cc13)CN(C(=O)N1CCCCC1)CC2
Outline: as §1

[5] = compound: c1cc(OCCN2CCCCC2)cc(-c2n[nH]c3ccc(-c4nnc[nH]4)cc23)c1
Outline: as §1

[6] = compound: NC(=O)Nc1cc(-c2cccc(F)c2)sc1C(=O)N[C@H]1CCCNC1
Outline: as §1

entinostat = compound: Nc1ccccc1NC(=O)c1ccc(CNC(=O)OCc2cccnc2)cc1 [entinostat]
Outline: as §1

vorinostat = compound: O=C(CCCCCCC(=O)Nc1ccccc1)NO [vorinostat]
Outline: as §1

Measured: log2 fold change

TMEM98 (UniProt Q9Y2Y6)
inactive: [1] 0.226 | silmitasertib 0.162

TNFAIP1 (UniProt Q13829)
inactive: [2] 0.108 | [1] 0.003 | [3] -0.007 | citarinostat 0.116 | silmitasertib 0.051 | [4] -0.325 | [5] -0.219

TMEM106C (UniProt Q9BVX2)
inactive: [6] 0.129 | [3] 0.2 | entinostat 0.049

TMCC2 (UniProt O75069)
inactive: [2] -0.217

TMEM104 (UniProt Q8NE00)
inactive: [2] 0.08 | [1] 0.232 | vorinostat 0.068 | citarinostat -0.063 | silmitasertib 0.097 | [4] 0.143 | [5] -0.051

TLR4 (UniProt O00206)
inactive: [6] 0 | [3] -0.122 | entinostat -0.063 | vorinostat -0.084 | citarinostat -0.018 | [5] -0.055

TMEM127 (UniProt O75204)
inactive: [2] -0.126

TMEM94 isoform 2 (UniProt Q12767)
inactive: [2] -0.016

TMEM35B (UniProt Q8NCS4)
inactive: [1] 0.053 | [3] -0.105 | vorinostat -0.126 | silmitasertib 0.03

TMPO (UniProt G5E972)
inactive: [1] -0.289 | vorinostat 0.082 | silmitasertib 0.072

TMEM79 (UniProt Q9BSE2)
inactive: [2] 0.24

TMC6 (UniProt Q7Z403)
inactive: [2] -0.073 | [1] 0.087 | [3] 0.072 | vorinostat -0.002 | citarinostat -0.028 | silmitasertib 0.102 | [5] -0.045

TMCC3 (UniProt Q9ULS5)
inactive: [6] 0.002 | [1] -0.095 | entinostat -0.012 | citarinostat -0.012 | silmitasertib -0.026 | [5] -0.024

TLE5 isoform 2 (UniProt Q08117)
inactive: [2] -0.009 | [1] -0.006 | [3] 0.064 | vorinostat 0.028 | citarinostat -0.103 | silmitasertib -0.106 | [5] -0.22

TMED8 (UniProt Q6PL24)
inactive: [2] 0.014 | [1] -0.096 | [3] 0.042 | vorinostat -0.03 | citarinostat 0.007 | silmitasertib 0.057 | [5] 0.041

TMEM175 (UniProt Q9BSA9)
inactive: [2] -0.131 | citarinostat -0.15 | [5] 0.014

TMCO3 (UniProt Q6UWJ1)
inactive: [6] -0.019 | [1] 0.026 | [3] 0.32 | entinostat -0.008 | vorinostat -0.197 | silmitasertib 0.134 | [4] -0.008

TMEM273 isoform 2 (UniProt Q5T292)
inactive: [2] -0.286 | [3] -0.102

TMCO6 isoform 2 (UniProt Q96DC7)
inactive: vorinostat 0.237

TNFAIP2 (UniProt Q03169)
inactive: [6] -0.025 | entinostat -0.049

TMEM184B (UniProt Q9Y519)
inactive: [6] 0.056 | [1] 0.021 | entinostat 0.002 | silmitasertib 0.034

TMEM134 (UniProt Q9H6X4)
inactive: [2] 0.124 | [1] -0.066 | vorinostat -0.182 | silmitasertib -0.014 | [4] 0.057

TNFAIP3 (UniProt P21580)
inactive: [2] 0.024 | [1] -0.033 | [3] -0.013 | vorinostat -0.003 | silmitasertib 0.092 | [4] -0.115

TMSB4X (UniProt P62328)
inactive: [2] 0.314 | [1] 0.63 | [3] -0.123 | citarinostat -0.338 | silmitasertib -0.105 | [4] -1.08 | [5] 0.271

TMEM120B (UniProt A0PK00)
inactive: [2] 0.146 | [1] 0.02 | [3] 0.253 | vorinostat -0.068 | silmitasertib 0.099

TMEM41B (UniProt Q5BJD5)
inactive: [2] -0.158 | [1] -0.067 | [3] -0.111 | vorinostat 0.01 | citarinostat -0.018 | silmitasertib 0.049 | [4] 0.079 | [5] -0.031

TNFRSF1A (UniProt P19438)
inactive: [6] -0.377 | entinostat -0.086 | vorinostat -0.144 | [4] 0.108

TMEM267 (UniProt Q0VDI3)
inactive: [2] -0.085 | [3] -0.226 | vorinostat -0.177 | citarinostat -0.101 | [5] 0.082

TM7SF2 (UniProt O76062)
inactive: [6] 0.057 | [3] -0.276 | entinostat 0.119

Quoted at random: 2 records from the list.
TMEM120B (UniProt A0PK00)
inactive: [2] 0.146 | [1] 0.02 | [3] 0.253 | vorinostat -0.068 | silmitasertib 0.099

TMEM267 (UniProt Q0VDI3)
inactive: [2] -0.085 | [3] -0.226 | vorinostat -0.177 | citarinostat -0.101 | [5] 0.082

Next part.

TMEM260 (UniProt Q9NX78)
inactive: [2] 0.098 | [1] -0.026 | silmitasertib 0.047
